In all, about 2,400 compounds went through this assay and about 20 (0.8%) were called active.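 Rule for the calls: active = AC50 no more than ten times the highest tested concentration, or full inhibition at every dose giving a flat fit (cut at about 30 µM in these data); inconclusive = flat fit with activity between 30% and 70%, or poor-quality invalid fit; inactive = AC50 more than ten times the top tested dose.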 This is one part of the list.
Experiment: luciferase-based ADP detection interference – biochemical, luminescence, cell-free, homogeneous, artefact control for GSK-3a inhibitor project, dose response (AID 463205);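 note: kinase-free counter-screen against the ADP-Glo detection reagents only; potency is for inhibitors that reduce the luminescence signal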
Conditions: Cell-free ADP-Glo detection reagents, 5 uM ADP

AC50, inactive:
COc1ccc(Br)cc1C1CC(=O)N2CN(Cc3ccccc3)CSC2=C1C#N (stereo unspecified) > 30 µM
Fc1ccc(/C=N/Nc2cc(N3CCOCC3)ncn2)cc1 > 30 µM
CCOC(=O)c1cccc(NC(=O)C2CCCN2S(=O)(=O)c2cccc3cccnc23)c1 (stereo unspecified) > 30 µM
Cc1ccc(N=Nc2c(O)[nH]c3ccc(F)cc23)cc1 > 30 µM
CC(C)(C)OC(=O)N1CCC(NC(=O)c2nc[nH]c2C(=O)NC2CCN(C(=O)OC(C)(C)C)CC2)CC1 > 30 µM
O=C1NC(=Nc2ccccc2)S/C1=C\c1cccs1 > 30 µM
CC(C(=O)Nc1nccs1)c1ccc([N+](=O)[O-])cc1 (stereo unspecified) > 30 µM
Cc1ccc(S(=O)(=O)Nc2ccc(O)c3ncccc23)cc1 > 30 µM
CCOC(=O)C1=C(O)/C(=C\c2sccc2C)N=C1C > 30 µM
N#CC1=C(N)Oc2n[nH]c(-c3cccnc3)c2C1c1cc(F)ccc1F (stereo unspecified) > 30 µM
CCC(=O)c1ccc(OCC(O)CN2CCCCC2)cc1 (stereo unspecified) > 30 µM
Cc1nccnc1Sc1ccccc1 > 30 µM
CS(=O)(=O)Nc1ccc(-c2cc(/C=C3\SC(N)=NC3=O)c[nH]c2=O)cc1 > 30 µM
Cc1sc2ncnc(NCc3cccs3)c2c1C > 30 µM
CCOc1ccc(N2C(=O)C3C(c4ccccc4F)NN(C(=O)c4ccc(C)cc4)C3C2=O)cc1 (stereo unspecified) > 30 µM
Cc1ccc(-c2nc3c(c(=O)[nH]c(=O)n3CC(C)C)n2CC(C)C)cc1[N+](=O)[O-] > 30 µM
Oc1[nH]c2ccc(Br)cc2c1N=Nc1nn[nH]n1 > 30 µM
COc1cccc(C2CC(=O)N3CN(c4ccccc4F)CSC3=C2C#N)c1 (stereo unspecified) > 30 µM
O=C(Nc1sc2c(c1C(=O)N1CCOCC1)CCCCC2)c1cccnc1 > 30 µM
O=C(OC1CO[C@H]2O[C@@H]1[C@H](OC(=O)c1ccccc1)[C@H]2OC(=O)c1ccccc1)c1ccccc1 (stereo partly specified) > 30 µM
CC/C(=N\NC(=O)c1nnn(-c2nonc2N)c1-c1cccs1)c1ccccc1 > 30 µM
COc1ccccc1NC(=O)CSc1nnc(-c2ccc(C)cc2)o1 > 30 µM
COc1ccc(NC(=O)c2c(Nc3ccccc3)sc(C(=O)c3ccc(F)cc3)c2N)cc1 > 30 µM
COc1ccc(Nc2cc(C)nc(N)n2)cc1 > 30 µM
C=CCc1cc(/C=N/n2cnnc2)cc(OCC)c1O > 30 µM
CNC(=O)CSc1nnc(-c2ccco2)n1-c1ccccc1OC > 30 µM
CCOC(=O)C1=C(c2ccccc2)Nc2ncnn2C1c1cccc(O)c1 (stereo unspecified) > 30 µM
COc1cc2c(cc1OC)C(C)N(C(=O)Cn1ncc3c1-c1cc(C)ccc1OC3)CC2 (stereo unspecified) > 30 µM
CC(C)N=C(NC#N)SCc1ccc(F)cc1 > 30 µM
Cc1cccc(-n2nc(C)c3c2NC2=C(C(=O)CCC2)C3c2ccccn2)c1 (stereo unspecified) > 30 µM
CC(=O)c1sc(NC(=O)CN2C(=O)NC3(CCCC3)C2=O)nc1-c1ccccc1 > 30 µM
COc1ccc(C(=O)c2c(C(F)(F)F)oc3c2C(=O)c2ccccc2C3=O)cc1 > 30 µM
CCOC(=O)N1CCc2c(sc3nc4n(c(=O)c23)N=C(c2ccc(OC)cc2)CS4)C1 > 30 µM
CCCC(=O)NC(=S)Nc1ccc(C(C)=O)cc1 > 30 µM
CCOc1ccc(NC(=O)N(C2CCCCC2)C(C)c2cccnc2)cc1 (stereo unspecified) > 30 µM
CC1(C)Cc2nc3oc4c(=S)nc[nH]c4c3cc2CO1 > 30 µM
NS(=O)(=O)c1ccc(-c2ccc(/C=C3\SC(=O)NC3=O)o2)cc1 > 30 µM
O=C(N/N=C/c1ccccn1)c1cccc(NC(=O)c2ccccc2Cl)c1 > 30 µM
O=C(OCC1OC2OC3(CCCCC3)OC2C2OC3(CCCCC3)OC12)c1ccccc1 (stereo unspecified) > 30 µM
Nc1ncnc2nc(SCc3ccc(Cl)cc3Cl)[nH]c12 > 30 µM
CCSc1ncnc2c1sc1nc3c(cc12)COC(C)(C)C3 > 30 µM
CC(C)c1[nH]nc2c1C(c1ccco1)C(C#N)=C(N)O2 (stereo unspecified) > 30 µM
Cc1cccc(C)c1OC(=O)Cc1ccccc1[N+](=O)[O-] > 30 µM
NC(=O)c1cc([N+](=O)[O-])ccc1NCc1cccc(N)c1 > 30 µM
COc1ccc(/C=C2\Oc3cc(OCC(=O)N4CCC[C@H]4C(=O)O)ccc3C2=O)c(OC)c1OC > 30 µM
O=C(CSc1nc2[nH]ncc2c(=O)n1-c1ccccc1Br)NCc1ccccc1Cl > 30 µM
C/C(CC(=O)N(C(C)C)C(C)C)=N\NC(=O)COc1ccc(Br)cc1Br > 30 µM
Nc1nc(-c2ccccc2)cc(-c2ccccc2O)n1 > 30 µM
Cc1ccc2nc(C3CCCCC3)[nH]c2c1 > 30 µM
COc1ccc(/C=C2\Oc3cc(OCC(=O)N4CC(O)C[C@H]4C(=O)O)ccc3C2=O)c(OC)c1OC (stereo partly specified) > 30 µM
CC1CCCN(C(=O)CCc2nnc(-c3ccc4c(c3)OCO4)o2)C1 (stereo unspecified) > 30 µM
CC1(C)CC(=O)C2=C(C1)Nc1[nH]n(-c3ccccc3)c(=O)c1C2c1ccc2c(c1)OCO2 (stereo unspecified) > 30 µM
N#C/C(C(N)=O)=C1/CCc2ccccc2N1 > 30 µM
COc1ccc(-c2noc(CSc3nc(-c4ccccc4)cc(=O)[nH]3)n2)cc1OC > 30 µM
CCOC(=O)c1nnn(-c2nonc2N)c1-c1ccccc1 > 30 µM
N/C(=N\OC(=O)c1ccco1)c1ccc(Cl)cc1 > 30 µM
CCOC(=O)c1nnn(-c2nonc2N)c1-c1cccc2ccccc12 > 30 µM
COc1cccc(N/C(SC)=C(/C#N)C(N)=O)c1 > 30 µM
CCC(=O)Nc1sc2c(c1C(N)=O)CCC2 > 30 µM
COc1ccc(-n2c(C)c([N+](=O)[O-])c3ccc(O)c(CN(C)C)c32)cc1 > 30 µM
COc1ccc(CCNc2nc(C)c(C(C)=O)s2)cc1OC > 30 µM
COc1cccc(-c2c(C(=O)N/N=C(\C)c3cccnc3)nnn2-c2nonc2N)c1 > 30 µM
COc1ccccc1N1CCN(C(=O)c2cc(-c3ccccc3)on2)CC1 > 30 µM
CC1CCN(Cc2c(C(=O)N/N=C/c3ccc(C(C)C)cc3)nnn2-c2nonc2N)CC1 > 30 µM
CCOC(=O)N1CCN(C(=O)CSc2ccc3nnc(-c4ccccn4)n3n2)CC1 > 30 µM
Cc1ccc(N(Cc2ccc([N+](=O)[O-])cc2)C(=O)c2ccco2)cc1 > 30 µM
Cc1ccc2oc(=O)c3cnn(CC(=O)N4CCc5ccccc5C4)c3c2c1 > 30 µM
O=C(Nc1cccc(O)c1)c1ccc([N+](=O)[O-])cc1Cl > 30 µM
CNC(=O)NCC12CC3CC(CC(C3)C1)C2 > 30 µM
N/C(=N\OC(=O)c1ccc2ccccc2c1)c1cccc([N+](=O)[O-])c1 > 30 µM
CC(=O)Nc1ccc(OC(=O)CC2SC(=O)NC2=O)cc1 (stereo unspecified) > 30 µM
Cc1cccc(-c2c3c(=O)n(C)c(=O)n(C)c3c3cccnn23)c1 > 30 µM
Cc1ccc(-n2nnnc2SCc2nnc(-c3ccccc3Br)o2)cc1 > 30 µM
COC(=O)[C@@H](NC(=O)NCc1ccccc1Cl)C(C)C > 30 µM
NS(=O)(=O)c1ccc(Nc2nc(-c3ccc(O)cc3)cs2)cc1 > 30 µM
CCCCN(CCCC)c1cn[nH]c(=O)c1Cl > 30 µM
Cc1nc(Nc2ccc(F)cc2)nc(Nc2ccc(F)cc2)c1[N+](=O)[O-] > 30 µM
Nc1nccnc1C(=O)N/N=C/c1ccco1 > 30 µM
O=C(COC(=O)c1cc([N+](=O)[O-])ccc1N1CCOCC1)Nc1ccc(Cl)cn1 > 30 µM
CC(=O)Oc1cc2c3c(c1)/C(=C1/SC(=S)NC1=O)C(=O)N3C(C)(C)C=C2C > 30 µM
CCCCOC(=O)C1=C(C)Nc2ncnn2C1c1ccc(OC)c(OC)c1 (stereo unspecified) > 30 µM
COc1cccc(/C=N/NC(=O)C(=O)N2CCCC2)c1OC > 30 µM
O=C(O)c1ccc2c(c1)S(=O)(=O)c1ccccc1C2=O > 30 µM
CC1=CC(=C2C(=O)c3ccccc3C2=O)C=C(C)N1Cc1ccco1 > 30 µM
COc1cccc(/C=N/NC(=O)COc2cccc3cccnc23)c1O > 30 µM
CCOc1cc(/C=N/Nc2ncnc(Cl)c2N)ccc1O > 30 µM
CCN1C(=O)/C(=C\c2cccs2)C(C(=O)OC)=C1C > 30 µM
O=c1[nH]nc(SCc2nnc(-c3cccc(Cl)c3)o2)n1C1CCCCC1 > 30 µM
COC(=O)c1sccc1-c1ccc(C(N)=O)o1 > 30 µM
O=C1c2c(O)ccc(O)c2C(=O)c2c(NCCNCCO)ccc(NCCNCCO)c21 > 30 µM
CCOC(=O)c1nnn(-c2nonc2N)c1COc1cc(C)c(Cl)c(C)c1 > 30 µM

In the list so far, five have bromine:
AC50, inactive:
COc1ccc(Br)cc1C1CC(=O)N2CN(Cc3ccccc3)CSC2=C1C#N (stereo unspecified) > 30 µM
Oc1[nH]c2ccc(Br)cc2c1N=Nc1nn[nH]n1 > 30 µM
O=C(CSc1nc2[nH]ncc2c(=O)n1-c1ccccc1Br)NCc1ccccc1Cl > 30 µM
C/C(CC(=O)N(C(C)C)C(C)C)=N\NC(=O)COc1ccc(Br)cc1Br > 30 µM
Cc1ccc(-n2nnnc2SCc2nnc(-c3ccccc3Br)o2)cc1 > 30 µM
